PubChem BioAssay AID1273 (Columbia University Molecular Screening Center, 2008)
This is one part of the list. Further columns of the screen follow, without active or inactive calls. Compounds called inactive in the main read-out are mostly missing here.

assay: inhibitors of insulin promoter-driven GFP, primary screen, imaging, TRM-6 cells (human fetal islet line), eGFP reporter, cell count (AID 1273;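 note: cells exposed to compound for 48 h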); conditions: measured here: cell count, toxicity, at 2 µM, reporter expression induced with tamoxifen

SMILES	normalized cell count
Cc1nc2c(Cl)cc(Cl)cc2[nH]1	170%
CCOC(=O)/C(=C/c1ccc(N2CCC(c3ccccc3)=N2)cc1)C(C)=O	74.3%
O=C(NNC(=O)c1cccc2ccccc12)c1ccc(-c2ccccc2)cc1	152%
O=[N+]([O-])c1ccccc1/C=C\C=N\N1CCN(c2ccccc2)CC1	69.6%
COc1ccc(Nc2nc(N)nc(CSc3nncn3C)n2)cc1	94.3%
COC(=O)c1ccc(-c2nc3ccccc3[nH]2)cc1	125%
COC(=O)c1[nH]c2ccccc2c1NC(=O)CN1CCN(C(=O)c2ccco2)CC1	79.8%
Cc1ccc(CNS(=O)(=O)NCc2cccs2)cc1	97.1%
O=S(=O)(c1ccc(Nc2ccc3c(c2)OCO3)nc1)N1CCOCC1	176%
CCc1c(O)nc(SCC(=O)Nc2ccccc2C)[nH]c1=O	129%
Cc1cc(C)c2c(N)c(C(=O)c3ccc(Cl)c(Cl)c3)sc2n1	103%
COc1ccc(CC(=O)NCc2n[nH]c(=S)n2-c2cccc(C)c2)cc1	60.9%
CC(C)(C)c1ccc(-c2nnc(SCC(=O)NC3CCS(=O)(=O)C3)n2N)cc1 (centres undefined)	82.4%
O=C(Nc1nc2ccccc2s1)C1CC(=O)N(c2ccc(Br)cc2)C1 (centres undefined)	118%
CC(=O)N1N=C(c2cccs2)CC1c1ccc(C)o1 (centres undefined)	88.8%
C=CCNc1ncnc2c1[nH]c1ccc(Cl)cc12	149%
COc1ccc(F)cc1S(=O)(=O)N1CCCN(S(=O)(=O)c2cc(F)ccc2OC)CC1	117%
C[C@H]1O[C@@H](O[C@H]2[C@@H](O)C[C@H](O[C@H]3[C@@H](O)C[C@H](O[C@H]4CC[C@@]5(C)[C@H](CC[C@@H]6[C@@H]5C[C@@H](O)[C@]5(C)[C@@H](C7=CC(=O)OC7)CC[C@]65O)C4)O[C@@H]3C)O[C@@H]2C)C[C@H](O)[C@@H]1O	0%
O=C(NCc1nc(-c2ccccc2)no1)c1ccc(Br)o1	154%
CCOC(=O)Cn1c(=O)c2c(nc(N3CCOCC3)n2C)n(C)c1=O	90.2%
NS(=O)(=O)c1ccc(NC(=O)C2Cc3ccccc3C(=O)O2)cc1 (centres undefined)	52.9%
Cc1ccc2c(c1)C(=NC1CCCCC1)c1cc3ccccc3nc1-2	137%
CC(NC(=O)C12CC3(C)CC(C)(CC(C)(C3)C1)C2)C(=O)O (centres undefined)	121%

SMILES	normalized cell count
CCc1cc(=O)oc2c(CN3CCCC3)c(O)c(Cl)cc12	97.8%
Cc1ccc(Cn2nnnc2CN2CCC(O)(c3cccnc3)CC2)cc1	86.6%
Cc1cc(C)c2c(N)c(C(=O)c3ccc(Cl)cc3)sc2n1	105%
Cc1c(C(=O)c2ccc(Cl)c([N+](=O)[O-])c2)c2ccccn2c1CCC#N	130%
CC(C)c1cc(C(=O)Nc2ccc3c(c2)OCO3)no1	126%
CCc1ccc2[nH]c3nc(C)cc(C)c3c(=O)c2c1	127%
COc1cccc(N=c2oc3ccccc3cc2-c2nc3ccccc3[nH]2)c1	150%
CCN1C/C(=C\c2cccc([N+](=O)[O-])c2)C(=O)/C(=C/c2cccc([N+](=O)[O-])c2)C1	0.56%
Cn1c(=O)c2c(nc(NCC3CCCO3)n2Cc2ccccc2)n(C)c1=O (centres undefined)	10.8%
CCOC(=O)C1(C)C=C(Nc2ccc(C)cc2)C(=O)N1c1ccc(C)cc1 (centres undefined)	144%
Cc1ccc(-c2cn3cccc(C)c3n2)cc1	126%
CCOc1ccccc1NC(=O)COn1nnc2ccccc21	111%
CCCNc1ncccc1C(N)=O	67.4%
O=C1C2ON(c3ccccc3)C(c3ccncc3)C2C(=O)N1c1ccccc1 (centres undefined)	134%
CCOC(=O)c1cnn(C(=O)c2ccccc2)c1N	63.2%
CC1Cc2nc(SCC(=O)OCc3ccccc3)n(C)c(=O)c2S1 (centres undefined)	48.4%
COc1nc(NCc2ccco2)nc(NC2CCCCC2)n1	112%
CCOC(=O)N1CCN(c2ccc(Cl)cc2)CC1	121%
O=C(Nc1nnc(SCC(=O)N2CCCCC2)s1)C1CCCCC1	67.6%
Cc1ccc(C2c3c(oc4ccccc4c3=O)C(=O)N2c2nnc(C)s2)o1 (centres undefined)	107%
CCCc1cc(C(=O)Nc2sc(C)c(CC)c2C#N)no1	106%
CCCn1c(N)c(C(=O)CSc2nc(C)cs2)c(=O)[nH]c1=O	118%
COc1cccc(NC(=S)/C(=C(\[O-])c2ccc(C)c([N+](=O)[O-])c2)[n+]2ccccc2)c1	118%

SMILES	normalized cell count
CCOC(=O)C1CCCN(C(=O)CCc2ccccc2)C1 (centres undefined)	72.8%
CC1(CCc2ccccc2)NC(=S)N(c2ccc(Cl)cc2)N1 (centres undefined)	103%
C/C(CCc1oc2ccc(Cl)cc2c1-c1ccc(C)o1)=N\O	128%
CC(C)OC(=O)c1c(NC(=O)CCC(=O)O)sc2c1CCCCC2	97.8%
O=C(CNC(=O)c1ccccc1C(=O)O)c1ccccc1	37.3%
O=C1c2ccccc2C(=O)N1CC(O)CNc1ccc(Br)cc1 (centres undefined)	68.4%
CCCC(=O)NCCc1cc2cc(C)c(C)cc2[nH]c1=O	137%
CN1CCN(C(=S)NC(=O)c2ccc(C(C)(C)C)cc2)CC1	120%
CCN(CC)C(=O)c1ccc2nc(-c3ccccc3)c(-c3ccccc3)nc2c1	218%
O=S(=O)(N1CCOCC1)n1c(Cc2ccccc2)nc2ccccc21	11.4%
NNC(=O)CCc1ccc(S(=O)(=O)N2CCOCC2)cc1	93.7%
Cc1nc2ccc(NC(=O)N3CCSCC3)cc2nc1C	184%
CCN(CC)C(=O)CSc1nc(-c2ccc(C)cc2)nc2c1COC(C)(C)C2	84.5%
CCOC(=O)CN1C(=O)N[C@@H](c2ccccc2)C(C(C)=O)=C1C	75.5%
CCc1nc2oc3cc(OC)ccc3c(=O)c2c(=O)n1Cc1ccccc1	109%
Cc1ccc(Oc2nnc(-c3cccs3)c3ccccc23)cc1	114%
Cc1ccccc1CS(=O)(=O)c1nnc([C@H](Cc2ccccc2)NC(=O)OC(C)(C)C)o1	87.8%
O=C(c1ccccc1)c1ccc2nc[nH]c2c1	75.4%
CCOc1ccccc1N/C=C(\C#N)c1nc2ccccc2n1C	101%
CCn1c(NC(=O)c2ccco2)c(-c2ccccc2Cl)c(=O)c2ccccc21	69.4%
CC(C)(C)c1nc2ccccc2[nH]1	195%
CSc1ncccc1C(=O)OCC(=O)c1ccccc1	119%
C=CCn1c(C)cc(C(=O)COC(=O)CNC(=O)c2ccccc2)c1C	86.3%

Copied from the list.
Under normalized cell count, CC(C)OC(=O)c1c(NC(=O)CCC(=O)O)sc2c1CCCCC2 is entered as 97.8%
Under normalized cell count, Cc1ccccc1CS(=O)(=O)c1nnc([C@H](Cc2ccccc2)NC(=O)OC(C)(C)C)o1 is entered as 87.8%
Under normalized cell count, CCOC(=O)CN1C(=O)N[C@@H](c2ccccc2)C(C(C)=O)=C1C is entered as 75.5%
Under normalized cell count, C=CCn1c(C)cc(C(=O)COC(=O)CNC(=O)c2ccccc2)c1C is entered as 86.3%

(further entries)

SMILES	normalized cell count
Cc1ccc(Nc2c(-c3ccc(N4CCOCC4)cc3)nc3ncccn23)cc1C	107%
Cc1[nH]n(-c2ccccc2)c(=O)c1C(c1ccc(O)c([N+](=O)[O-])c1)c1c(C)[nH]n(-c2ccccc2)c1=O	49.8%
CCN(C(=O)c1cn(C)c(=O)c2cc(OC)c(OC)cc12)c1ccccc1C	118%
CC(C)N1CCc2c(sc(NC(=O)c3ccc(S(=O)(=O)N4CCOCC4)cc3)c2C#N)C1	60.9%
O=C(O)C1C2CCC(O2)C1C(=O)NCc1ccc(Cl)cc1 (centres undefined)	90.3%
COc1ccc(C2CC(c3cccs3)Nc3nnnn32)cc1 (centres undefined)	120%
CNC(=O)/C=C1\NC(C)(C)Cc2ccccc21	118%
COc1ccc(N(CC(=O)Nc2nccs2)S(=O)(=O)c2c(C)[nH]c(=O)[nH]c2=O)cc1	80.4%
c1ccc(-c2noc(-c3cccnc3)n2)nc1	55.5%
CNC(=O)C(=O)N/N=C/c1ccc(Br)cc1	58.3%
Cc1nc2ccc(S(=O)(=O)NCC(=O)N3CCCC(C)C3)cc2s1 (centres undefined)	95.6%
c1ccc2c(c1)[nH]c1c(NCC3CCCO3)ncnc12 (centres undefined)	145%
O=C1Nc2ccc(F)cc2C12Nc1ccccc1-c1nnc(SCc3ccccc3)nc1O2 (centres undefined)	90.7%
COc1ccc2sc(NC(C)=O)nc2c1	99.7%
C=C(C)CSc1nc2ncccc2[nH]1	176%
c1ccc(CCNc2ccc3nncn3n2)cc1	68.7%
CCOC(=O)c1[nH]c2ccccc2c1NC(=S)Nc1cc(C)ccc1C	70%
CCNC(=O)N1CCOCC1	60.3%
Cc1ccc(CN2CCN(c3ccccn3)CC2)s1	102%
CC(=O)NC(C)C(=O)OCC(=O)Nc1ccc(Br)cc1 (centres undefined)	28.9%
Cc1ccc(OCc2ccc(C(=O)Nc3ccc(C(N)=O)cc3)o2)c([N+](=O)[O-])c1	90.8%
c1ccc(-c2cc(-c3ccccc3)n3ncnc3n2)cc1	82.3%
COc1cccc(Nc2nc3ccc(OC)cc3s2)c1	106%

SMILES	normalized cell count
O=C(CCC(=O)c1cccs1)NCc1ccc(Cl)cc1	105%
O=C(Oc1ccc2c(=O)c(Cl)coc2c1)c1ccncc1	117%
Cc1ccc(-c2csc(NC(=O)Cc3ccc(F)cc3)n2)o1	163%
CCCOc1ccc(/C=N/Nc2ccccc2[N+](=O)[O-])c(OCCC)c1	97.3%
CC1CCN(C(=O)CSc2nnc(Cc3cccn3C)n2-c2ccc(F)cc2)CC1	54.9%
COc1ccc(S(=O)(=O)c2nnn(-c3ccccc3Cl)c2N)cc1	125%
Cc1nn(C(=O)c2ccco2)c(C)c1Br	67.9%
c1ccc(-c2nc(-c3ccncc3)no2)cc1	132%
Cc1nc(CSc2nnc(C)s2)cs1	108%
CCn1c(-c2cccs2)nc2ccccc21	153%
Cc1ccc(C(=O)CSc2nc(C)cc(C)c2C(N)=O)cc1	107%
O=C(Nc1ccn(Cc2ccc(Cl)cc2)n1)c1ccc2c(c1)OCO2	99.4%
COc1cccc(Nc2nc3ccccc3n2C(C)C)c1	113%
C=CCc1c(C)[nH]c(=O)[nH]c1=O	87.4%
CCc1ccc(/C=C2/C(=O)N(CC)C(=S)N2C)s1	86.2%
CC1=C(C(=O)N2CCCCCC2)C2(CCC(C)CC2)OC1=O (centres undefined)	192%
Cc1ccc(OCCCCn2ccnc2)c(Cl)c1	60.2%
CC(C)CCN1C(=O)c2ccc(C(=O)Nc3cccc(S(N)(=O)=O)c3)cc2C1=O	51.5%
COc1ccc2c3c(cccc13)NN=C2C	15.4%
CCOc1ccc(C(=O)NC2=NCCS2)cc1	41.7%
CCC(C)(C)C(=O)Nc1ccc(OC)cc1[N+](=O)[O-]	0%
CCOc1ccc(-c2nnn(CC(=O)N3CCCC3)n2)cc1OCC	56%
